Experimental data taken from the supplement of paper PMC7024190.
Structures can show the parent of a compound that is named as a salt. This is one part of the list. This data set is noisy: repeats of one test often differ as much as different tests do.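 Human embryonic kidney cells were transiently transfected with a plasmid bearing a Renilla luciferase gene under the HSV-TK promoter. This first-round screen tests roughly ten thousand compounds for ones that increase reporter output.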

system: HEK 293FT; test: log relative Renilla luciferase luminescence (reporter expression vs reference, reference not stated) (log (base not stated)); higher = higher recombinant reporter expression; conditions: 10 µM; time after transfection 48 h

| Structure (SMILES) | log |
| --- | --- |
| CC(C)c1nc(N(C)S(C)(=O)=O)nc(-c2ccc(F)cc2)c1/C=C/[C@@H](O)C[C@@H](O)CC(=O)O [Rosuvastatin Calcium] | -0.00528 |
| CCC(N)(C(=O)O)P(=O)(O)O (stereo not given) [Aminophosphonobutyric acid] | -0.168 |
| O=C1C=C(O)C(=O)c2ccccc21 [Lawsone] | 0.165 |
| O=C1c2c(O)ccc(O)c2C(=O)c2c(NCCNCCO)ccc(NCCNCCO)c21 [Mitoxantrone Hydrochloride] | -1.08 |
| CC(C)CCOC(=O)c1ccccc1O [Isopentyl Salicylate] | 0.0942 |
| Nc1nc(=O)[nH]c2c1ncn2[C@@H]1O[C@H](CO)[C@@H](O)[C@H]1O [Isoguanosine] | 0.0659 |
| CC(=O)OCC1=C(C(=O)O)N2C(=O)[C@@H](NC(=O)Cc3cccs3)[C@H]2SC1 [Cefalotin] | -0.00589 |
| OC(C#CCN1CCCCC1)(c1ccccc1)c1ccccc1 [Diferidin] | -0.0169 |
| N#Cc1c2c(c(Nc3ccc(F)cc3)n3c1nc1ccccc13)CCCC2 | 0.121 |
| O=C(c1ccc(Cl)cc1)c1cc(NC(=O)c2cc(Cl)cc(Br)c2O)ccc1Cl [Bromoxan] | 0.0502 |
| O=C1c2cccc3c2[C@H](CCC3)CN1[C@@H]1CN2CCC1CC2 [Palonosetron Hydrochloride] | 0.225 |
| C=C1C(=O)O[C@@H]2C[C@@]3(C)CCC[C@H](C)C3=C[C@H]12 [Helenin] | -1.63 |
| COc1ccc(/C=N/NC(=O)c2ccncc2)c(C(=O)O)c1OC [Opiniazide] | 0.197 |
| CC(C)=CCC[C@](C)(O)C1CC=C(C)CC1 (stereo not given in full) [Bisabolol] | -0.0627 |
| COc1ccc(-c2cc(=O)c3c(O)cc(O[C@@H]4O[C@H](CO[C@@H]5O[C@@H](C)[C@H](O)[C@@H](O)[C@H]5O)[C@@H](O)[C@H](O)[C@H]4O)cc3o2)cc1 [Acaciin] | 0.187 |
| Nc1nc2[nH]cc(CCc3ccc(C(=O)N[C@@H](CCC(=O)O)C(=O)O)cc3)c2c(=O)[nH]1 [Pemetrexed Disodium Heptahydrate] | -0.707 |
| CC(C)=CCNc1ncnc2nc[nH]c12 [Isopentenyladenine] | -0.0904 |
| CCCCN1CCCCC1C(=O)Nc1c(C)cccc1C (stereo not given) [Bupivacaine] | 0.0199 |
| COc1n[nH]c2nncnc12 [Fluviol A] | -0.127 |
| COc1cc(/C=N/NC(=O)c2ccncc2)ccc1O [Ftivazide] | 0.118 |

3 entries from above, tab-delimited:
Structure (SMILES)	log
CC(C)c1nc(N(C)S(C)(=O)=O)nc(-c2ccc(F)cc2)c1/C=C/[C@@H](O)C[C@@H](O)CC(=O)O [Rosuvastatin Calcium]	-0.00528
CCC(N)(C(=O)O)P(=O)(O)O (stereo not given) [Aminophosphonobutyric acid]	-0.168
O=C1C=C(O)C(=O)c2ccccc21 [Lawsone]	0.165

Following part

| Structure (SMILES) | log |
| --- | --- |
| COc1ccc2[nH]cc(C3CCCN(C(C)=O)C3)c2c1 (stereo not given) | -0.0321 |
| COc1ccc(-c2oc3c(CC=C(C)C)c(O[C@@H]4O[C@H](CO)[C@@H](O)[C@H](O)[C@H]4O)cc(O)c3c(=O)c2O[C@@H]2O[C@@H](C)[C@H](O)[C@@H](O)[C@H]2O)cc1 [Icariin] | -1.02 |
| O=C1OC(c2ccc(O)cc2)(c2ccc(O)cc2)c2ccccc21 [Phenolphthalein] | 0.081 |
| Nc1ccc(/C=C/c2ccc(N)cc2S(=O)(=O)O)c(S(=O)(=O)O)c1 [Amsonate] | 0.0245 |
| C(=N\N1CCN(C(c2ccccc2)c2ccccc2)CC1)/c1ccccn1 | 0.0131 |
| CCCCCC(=O)O[C@]1(C(C)=O)CC[C@H]2[C@@H]3CCC4=CC(=O)CC[C@]4(C)[C@H]3CC[C@@]21C [Hydroxyprogesterone caproate] | -0.0675 |
| CC(=O)O[C@H]1CC(C)=C2C(=O)C=C(C)[C@@H]2[C@H]2OC(=O)[C@@H](C)[C@@H]21 [Matricarin] | 0.0922 |
| O=C1c2c(O)cc(O)cc2O[C@H](c2cc(O)c(O)c(O)c2)[C@H]1O | 0.0932 |
| Nc1ncnc(Nc2ccccc2)n1 [Amanozine] | -1.22 |
| CC(C)c1c(C(=O)Nc2ccccc2)c(-c2ccccc2)c(-c2ccc(F)cc2)n1CC[C@@H](O)C[C@@H](O)CC(=O)O [Atorvastatin Calcium] | -0.328 |
| O=c1[nH]c(=O)n(C2CCCO2)cc1F (stereo not given) [Tegafur] | 0.0815 |
| Cc1oc(=O)oc1CN1CCN(c2cc3c(cc2F)c(=O)c(C(=O)O)c2n3C(C)S2)CC1 (stereo not given) [Prulifloxacin] | 0.128 |
| CCn1cc(C(=O)O)c(=O)c2ccc(C)nc21 [Nalidixic acid] | -0.128 |
| C=C(C)C(CC=C(C)C)Cc1c(O)cc(O)c2c1O[C@H](c1ccc(O)cc1O)CC2=O (stereo not given in full) [Sophoraflavone G] | -0.0464 |
| O=C(Nc1ncc([N+](=O)[O-])s1)c1cccs1 [Tenonitrozole] | -0.0372 |
| N=C(N)NC(=N)NCCc1ccccc1 [Phenformin Hydrochloride] | -0.0295 |
| OC[C@@H](O)[C@H](O)[C@H](O)[C@@H](O)CO [Galactitol] | 0.233 |
| CCC(=O)O[C@]1(C(=O)SCF)[C@H](C)C[C@H]2[C@@H]3C[C@H](F)C4=CC(=O)C=C[C@]4(C)[C@@]3(F)[C@@H](O)C[C@@]21C [Fluticasone Propionate] | -0.135 |
| CC1=C(C(=O)O)N2C(=O)[C@@H](NC(=O)[C@H](N)c3ccc(O)cc3)[C@H]2SC1 [Cefadroxil] | 0.166 |
| CC(/C=C1\SC(=S)N(CC(=O)O)C1=O)=C\c1ccccc1 [Epalrestat] | -0.027 |
